This assay addresses Complement factor C3a/C3 (human (endogenous in serum)). Description: affinity purification with mass spectrometry; precleared human serum recirculated at 4 °C over 3F7E2-mAb coupled to cyanogen bromide Sepharose; washes with Triton X-100, sodium deoxycholate and 0.5 M NaCl at pH 8.0 and 9.0; elution with 50 mM TEA pH 11.3; reducing SDS-PAGE, whole lane to nanoLC-MS; haptoglobin column (3A8-mAb) as control; hits: >10-fold enriched, p < 0.05, three technical replicates.

Results are given in words; binding and its absence hold for the method and conditions named. Binding seen in cells or lysates may run through a third protein. A yes stands for co-enrichment or nearness to the bait. Other partners may have been found. Sequences can lack the tags named with a protein.

B1: Inter-alpha-trypsin inhibitor heavy chain H2 (protein, UniProt P19823 55-702)
chain: SLPGESEEMMEEVDQVTLYSYKVQSTITSRMATTMIQSKVVNNSPQPQNVVFDVQIPKGAFISNFSMTVDGKTFRSSIKEKTVGRALYAQARAKGKTAGLVRSSALDMENFRTEVNVLPGAKVQFELHYQEVKWRKLGSYEHRIYLQPGRLAKHLEVDVWVIEPQGLRFLHVPDTFEGHFDGVPVISKGQQKAHVSFKPTVAQQRICPNCRETAVDGELVVLYDVKREEKAGELEVFNGYFVHFFAPDNLDPIPKNILFVIDVSGSMWGVKMKQTVEAMKTILDDLRAEDHFSVIDFNQNIRTWRNDLISATKTQVADAKRYIEKIQPSGGTNINEALLRAIFILNEANNLGLLDPNSVSLIILVSDGDPTVGELKLSKIQKNVKENIQDNISLFSLGMGFDVDYDFLKRLSNENHGIAQRIYGNQDTSSQLKKFYNQVSTPLLRNVQFNYPHTSVTDVTQNNFHNYFGGSEIVVAGKFDPAKLDQIESVITATSANTQLVLETLAQMDDLQDFLSKDKHADPDFTRKLWAYLTINQLLAERSLAPTAAAKRRITRSILQMSLDHHIVTPLTSLVIENEAGDERMLADAPPQDPSCCSGALYYGSKVVPDSTPSWANPSPTPVISMLAQGSQVLESTPPPHVMRVEND
Turning to B1, the binding entry is recorded as “binds”.

B2: Ceruloplasmin (protein, UniProt P00450 20-1065)
chain: KEKHYYIGIIETTWDYASDHGEKKLISVDTEHSNIYLQNGPDRIGRLYKKALYLQYTDETFRTTIEKPVWLGFLGPIIKAETGDKVYVHLKNLASRPYTFHSHGITYYKEHEGAIYPDNTTDFQRADDKVYPGEQYTYMLLATEEQSPGEGDGNCVTRIYHSHIDAPKDIASGLIGPLIICKKDSLDKEKEKHIDREFVVMFSVVDENFSWYLEDNIKTYCSEPEKVDKDNEDFQESNRMYSVNGYTFGSLPGLSMCAEDRVKWYLFGMGNEVDVHAAFFHGQALTNKNYRIDTINLFPATLFDAYMVAQNPGEWMLSCQNLNHLKAGLQAFFQVQECNKSSSKDNIRGKHVRHYYIAAEEIIWNYAPSGIDIFTKENLTAPGSDSAVFFEQGTTRIGGSYKKLVYREYTDASFTNRKERGPEEEHLGILGPVIWAEVGDTIRVTFHNKGAYPLSIEPIGVRFNKNNEGTYYSPNYNPQSRSVPPSASHVAPTETFTYEWTVPKEVGPTNADPVCLAKMYYSAVEPTKDIFTGLIGPMKICKKGSLHANGRQKDVDKEFYLFPTVFDENESLLLEDNIRMFTTAPDQVDKEDEDFQESNKMHSMNGFMYGNQPGLTMCKGDSVVWYLFSAGNEADVHGIYFSGNTYLWRGERRDTANLFPQTSLTLHMWPDTEGTFNVECLTTDHYTGGMKQKYTVNQCRRQSEDSTFYLGERTYYIAAVEVEWDYSPQREWEKELHHLQEQNVSNAFLDKGEFYIGSKYKKVVYRQYTDSTFRVPVERKAEEEHLGILGPQLHADVGDKVKIIFKNMATRPYSIHAHGVQTESSTVTPTLPGETLTYVWKIPERSGAGTEDSACIPWAYYSTVDQVKDLYSGLIGPLIVCRRPYLKVFNPRRKLEFALLFLVFDENESWYLDDNIKTYSDHPEKVNKDDEEFIESNKMHAINGRMFGNLQGLTMHVGDEVNWYLMGMGNEIDLHTVHFHGHSFQYKHRGVYSSDVFDIFPGTYQTLEMFPRTPGIWLLHCHVTDHIHAGMETTYTVLQNEDTKSG
Regarding B2, the binding result was “binds”.

B3: Corneodesmosin (protein, UniProt Q15517 33-529)
chain: KSIGTFSDPCKDPTRITSPNDPCLTGKGDSSGFSSYSGSSSSGSSISSARSSGGGSSGSSSGSSIAQGGSAGSFKPGTGYSQVSYSSGSGSSLQGASGSSQLGSSSSHSGNSGSHSGSSSSHSSSSSSFQFSSSSFQVGNGSALPTNDNSYRGILNPSQPGQSSSSSQTFGVSSSGQSVSSNQRPCSSDIPDSPCSGGPIVSHSGPYIPSSHSVSGGQRPVVVVVDQHGSGAPGVVQGPPCSNGGLPGKPCPPITSVDKSYGGYEVVGGSSDSYLVPGMTYSKGKIYPVGYFTKENPVKGSPGVPSFAAGPPISEGKYFSSNPIIPSQSAASSAIAFQPVGTGGVQLCGGGSTGSKGPCSPSSSRVPSSSSISSSSGLPYHPCGSASQSPCSPPGTGSFSSSSSSQSSGKIILQPCGSKSSSSGHPCMSVSSLTLTGGPDGSPHPDPSAGAKPCGSSSAGKIPCRSIRDILAQVKPLGPQLADPEVFLPQGELLNSP
Turning to B3, the binding result is reported as “binds”.

B4: Short-chain dehydrogenase/reductase family 9C member 7 (protein, UniProt Q8NEX9 1-313)
chain: MAALTDLSFMYRWFKNCNLVGNLSEKYVFITGCDSGFGNLLAKQLVDRGMQVLAACFTEEGSQKLQRDTSYRLQTTLLDVTKSESIKAAAQWVRDKVGEQGLWALVNNAGVGLPSGPNEWLTKDDFVKVINVNLVGLIEVTLHMLPMVKRARGRVVNMSSSGGRVAVIGGGYCVSKFGVEAFSDSIRRELYYFGVKVCIIEPGNYRTAILGKENLESRMRKLWERLPQETRDSYGEDYFRIYTDKLKNIMQVAEPRVRDVINSMEHAIVSRSPRIRYNPGLDAKLLYIPLAKLPTPVTDFILSRYLPRPADSV
With B4, the binding result is “binds”.

B5: Arachidonate 12-lipoxygenase, 12R-type (protein, UniProt O75342 1-701)
chain: MATYKVRVATGTDLLSGTRDSISLTIVGTQGESHKQLLNHFGRDFATGAVGQYTVQCPQDLGELIIIRLHKERYAFFPKDPWYCNYVQICAPNGRIYHFPAYQWMDGYETLALREATGKTTADDSLPVLLEHRKEEIRAKQDFYHWRVFLPGLPSYVHIPSYRPPVRRHRNPNRPEWNGYIPGFPILINFKATKFLNLNLRYSFLKTASFFVRLGPMALAFKVRGLLDCKHSWKRLKDIRKIFPGKKSVVSEYVAEHWAEDTFFGYQYLNGVNPGLIRRCTRIPDKFPVTDDMVAPFLGEGTCLQAELEKGNIYLADYRIMEGIPTVELSGRKQHHCAPLCLLHFGPEGKMMPIAIQLSQTPGPDCPIFLPSDSEWDWLLAKTWVRYAEFYSHEAIAHLLETHLIAEAFCLALLRNLPMCHPLYKLLIPHTRYTVQINSIGRAVLLNEGGLSAKGMSLGVEGFAGVMVRALSELTYDSLYLPNDFVERGVQDLPGYYYRDDSLAVWNALEKYVTEIITYYYPSDAAVEGDPELQSWVQEIFKECLLGRESSGFPRCLRTVPELIRYVTIVIYTCSAKHAAVNTGQMEFTAWMPNFPASMRNPPIQTKGLTTLETFMDTLPDVKTTCITLLVLWTLSREPDDRRPLGHFPDIHFVEEAPRRSIEAFRQRLNQISHDIRQRNKCLPIPYYYLDPVLIENSISI
Take B5: the binding result was “binds”.

B6: Alpha-2-macroglobulin (protein, UniProt P01023 24-1474)
chain: SVSGKPQYMVLVPSLLHTETTEKGCVLLSYLNETVTVSASLESVRGNRSLFTDLEAENDVLHCVAFAVPKSSSNEEVMFLTVQVKGPTQEFKKRTTVMVKNEDSLVFVQTDKSIYKPGQTVKFRVVSMDENFHPLNELIPLVYIQDPKGNRIAQWQSFQLEGGLKQFSFPLSSEPFQGSYKVVVQKKSGGRTEHPFTVEEFVLPKFEVQVTVPKIITILEEEMNVSVCGLYTYGKPVPGHVTVSICRKYSDASDCHGEDSQAFCEKFSGQLNSHGCFYQQVKTKVFQLKRKEYEMKLHTEAQIQEEGTVVELTGRQSSEITRTITKLSFVKVDSHFRQGIPFFGQVRLVDGKGVPIPNKVIFIRGNEANYYSNATTDEHGLVQFSINTTNVMGTSLTVRVNYKDRSPCYGYQWVSEEHEEAHHTAYLVFSPSKSFVHLEPMSHELPCGHTQTVQAHYILNGGTLLGLKKLSFYYLIMAKGGIVRTGTHGLLVKQEDMKGHFSISIPVKSDIAPVARLLIYAVLPTGDVIGDSAKYDVENCLANKVDLSFSPSQSLPASHAHLRVTAAPQSVCALRAVDQSVLLMKPDAELSASSVYNLLPEKDLTGFPGPLNDQDNEDCINRHNVYINGITYTPVSSTNEKDMYSFLEDMGLKAFTNSKIRKPKMCPQLQQYEMHGPEGLRVGFYESDVMGRGHARLVHVEEPHTETVRKYFPETWIWDLVVVNSAGVAEVGVTVPDTITEWKAGAFCLSEDAGLGISSTASLRAFQPFFVELTMPYSVIRGEAFTLKATVLNYLPKCIRVSVQLEASPAFLAVPVEKEQAPHCICANGRQTVSWAVTPKSLGNVNFTVSAEALESQELCGTEVPSVPEHGRKDTVIKPLLVEPEGLEKETTFNSLLCPSGGEVSEELSLKLPPNVVEESARASVSVLGDILGSAMQNTQNLLQMPYGCGEQNMVLFAPNIYVLDYLNETQQLTPEIKSKAIGYLNTGYQRQLNYKHYDGSYSTFGERYGRNQGNTWLTAFVLKTFAQARAYIFIDEAHITQALIWLSQRQKDNGCFRSSGSLLNNAIKGGVEDEVTLSAYITIALLEIPLTVTHPVVRNALFCLESAWKTAQEGDHGSHVYTKALLAYAFALAGNQDKRKEVLKSLNEEAVKKDNSVHWERPQKPKAPVGHFYEPQAPSAEVEMTSYVLLAYLTAQPAPTSEDLTSATNIVKWITKQQNAQGGFSSTQDTVVALHALSKYGAATFTRTGKAAQVTIQSSGTFSSKFQVDNNNRLLLQQVSLPELPGEYSMKVTGEGCVYLQTSLKYNILPEKEEFPFALGVQTLPQTCDEPKAHTSFQISLSVSYTGSRSASNMAIVDVKMVSGFIPLKPTVKMLERSNHVSRTEVSSNHVLIYLDKVSNQTLSLFFTVLQDVPVRDLKPAIVKVYDYYETDEFAIAEYNAPCSKDLGNA
With B6, the binding result is “binds”.

B7: Protein AMBP (protein, UniProt P02760 20-352)
chain: GPVPTPPDNIQVQENFNISRIYGKWYNLAIGSTCPWLKKIMDRMTVSTLVLGEGATEAEISMTSTRWRKGVCEETSGAYEKTDTDGKFLYHKSKWNITMESYVVHTNYDEYAIFLTKKFSRHHGPTITAKLYGRAPQLRETLLQDFRVVAQGVGIPEDSIFTMADRGECVPGEQEPEPILIPRVRRAVLPQEEEGSGGGQLVTEVTKKEDSCQLGYSAGPCMGMTSRYFYNGTSMACETFQYGGCMGNGNNFVTEKECLQTCRTVAACNLPIVRGPCRAFIQLWAFDAVKGKCVLFPYGGCQGNGNKFYSEKECREYCGVPGDGDEELLRFSN
Regarding B7, the binding entry is given as “binds”.

B8: Vitamin K-dependent protein S (protein, UniProt P07225 42-676)
chain: ANSLLEETKQGNLERECIEELCNKEEAREVFENDPETDYFYPKYLVCLRSFQTGLFTAARQSTNAYPDLRSCVNAIPDQCSPLPCNEDGYMSCKDGKASFTCTCKPGWQGEKCEFDINECKDPSNINGGCSQICDNTPGSYHCSCKNGFVMLSNKKDCKDVDECSLKPSICGTAVCKNIPGDFECECPEGYRYNLKSKSCEDIDECSENMCAQLCVNYPGGYTCYCDGKKGFKLAQDQKSCEVVSVCLPLNLDTKYELLYLAEQFAGVVLYLKFRLPEISRFSAEFDFRTYDSEGVILYAESIDHSAWLLIALRGGKIEVQLKNEHTSKITTGGDVINNGLWNMVSVEELEHSISIKIAKEAVMDINKPGPLFKPENGLLETKVYFAGFPRKVESELIKPINPRLDGCIRSWNLMKQGASGIKEIIQEKQNKHCLVTVEKGSYYPGSGIAQFHIDYNNVSSAEGWHVNVTLNIRPSTGTGVMLALVSGNNTVPFAVSLVDSTSEKSQDILLSVENTVIYRIQALSLCSDQQSHLEFRVNRNNLELSTPLKIETISHEDLQRQLAVLDKAMKAKVATYLGGLPDVPFSATPVNAFYNGCMEVNINGVQLDLDEAISKHNDIRAHSCPSVWKKTKNS
Take B8: the binding entry is recorded as “binds”.

B9: Prolactin-inducible protein (protein, UniProt P12273 29-146)
chain: QDNTRKIIIKNFDIPKSVRPNDEVTAVLAVQTELKECMVVKTYLISSIPLQGAFNYKYTACLCDDNPKTFYWDFYTNRTVQIAAVVDVIRELGICPDDAAVIPIKNNRFYTIEILKVE
On to B9, for which the binding result is recorded as “binds”.

The values above are taken from article PMC6921979.
